Measured values as given in publication PMC7314798.
No constants are given. Whether binding was seen depends on the method and setting. Sequences can lack the tags named with a protein.

Target: T1, recombinant, LPS-free His-tagged human GBP1 (guanylate-binding protein 1) (human), P32455
T1 chain: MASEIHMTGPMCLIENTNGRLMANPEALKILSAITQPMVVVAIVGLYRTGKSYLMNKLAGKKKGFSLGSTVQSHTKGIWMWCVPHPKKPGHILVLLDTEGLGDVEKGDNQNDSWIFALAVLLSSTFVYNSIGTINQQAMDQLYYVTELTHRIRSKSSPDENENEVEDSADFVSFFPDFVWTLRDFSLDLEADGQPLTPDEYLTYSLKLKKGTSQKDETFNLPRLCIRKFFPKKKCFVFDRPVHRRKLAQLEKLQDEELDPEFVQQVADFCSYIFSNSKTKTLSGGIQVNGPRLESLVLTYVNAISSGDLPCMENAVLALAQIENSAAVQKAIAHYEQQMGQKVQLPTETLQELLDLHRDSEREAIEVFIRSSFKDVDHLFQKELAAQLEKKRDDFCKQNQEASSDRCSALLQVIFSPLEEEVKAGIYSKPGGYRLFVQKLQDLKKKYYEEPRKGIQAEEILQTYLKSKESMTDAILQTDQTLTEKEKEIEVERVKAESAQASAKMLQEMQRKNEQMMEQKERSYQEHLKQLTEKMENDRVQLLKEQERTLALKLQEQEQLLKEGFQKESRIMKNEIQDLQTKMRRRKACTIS
Assay: SEC; Superdex 200 10/30 GL, running buffer 50 mM Tris pH 7.4, 150 mM NaCl; GBP1 (1 µM) kept on ice alone for 5 h before injection; size estimated with molecular weight standards; both purified
Conditions: remark: other sources report otherwise

- binding: no binding (tested: 1 µM)
B1: recombinant, LPS-free His-tagged human GBP1 (guanylate-binding protein 1), P32455 1-592 (protein)
chain: MASEIHMTGPMCLIENTNGRLMANPEALKILSAITQPMVVVAIVGLYRTGKSYLMNKLAGKKKGFSLGSTVQSHTKGIWMWCVPHPKKPGHILVLLDTEGLGDVEKGDNQNDSWIFALAVLLSSTFVYNSIGTINQQAMDQLYYVTELTHRIRSKSSPDENENEVEDSADFVSFFPDFVWTLRDFSLDLEADGQPLTPDEYLTYSLKLKKGTSQKDETFNLPRLCIRKFFPKKKCFVFDRPVHRRKLAQLEKLQDEELDPEFVQQVADFCSYIFSNSKTKTLSGGIQVNGPRLESLVLTYVNAISSGDLPCMENAVLALAQIENSAAVQKAIAHYEQQMGQKVQLPTETLQELLDLHRDSEREAIEVFIRSSFKDVDHLFQKELAAQLEKKRDDFCKQNQEASSDRCSALLQVIFSPLEEEVKAGIYSKPGGYRLFVQKLQDLKKKYYEEPRKGIQAEEILQTYLKSKESMTDAILQTDQTLTEKEKEIEVERVKAESAQASAKMLQEMQRKNEQMMEQKERSYQEHLKQLTEKMENDRVQLLKEQERTLALKLQEQEQLLKEGFQKESRIMKNEIQDLQTKMRRRKACTIS
